This is an account of results in article PMC3338482.

By UniProt entry, the sequences of proteins in these tests, tags left out.
UniProt Q04206: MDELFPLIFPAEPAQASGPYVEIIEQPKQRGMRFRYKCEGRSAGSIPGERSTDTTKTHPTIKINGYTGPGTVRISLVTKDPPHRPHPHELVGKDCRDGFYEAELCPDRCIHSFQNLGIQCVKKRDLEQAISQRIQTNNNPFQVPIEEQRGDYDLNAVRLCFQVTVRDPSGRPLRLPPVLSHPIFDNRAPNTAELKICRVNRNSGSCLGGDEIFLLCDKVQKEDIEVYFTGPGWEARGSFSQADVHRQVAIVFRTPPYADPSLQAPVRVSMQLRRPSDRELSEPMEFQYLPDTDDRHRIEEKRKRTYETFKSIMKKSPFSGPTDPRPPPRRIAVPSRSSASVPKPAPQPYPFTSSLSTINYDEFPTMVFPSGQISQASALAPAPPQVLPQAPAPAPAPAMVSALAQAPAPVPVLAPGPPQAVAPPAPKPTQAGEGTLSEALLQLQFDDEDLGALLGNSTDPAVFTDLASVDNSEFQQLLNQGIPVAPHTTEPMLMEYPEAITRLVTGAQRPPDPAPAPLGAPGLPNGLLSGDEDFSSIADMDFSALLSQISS

For the experiment, the target named is NF-κB p65 subunit (human (endogenous in BEAS-2B)) (UniProt Q04206). Briefly: co-IP; Total cell proteins of pCC10-transfected BEAS-2B cells stimulated with 10 ng/mL IL-1β for 4 hours; immunoprecipitated with rabbit anti-human p65 antibody (ProFound Mammalian Co-Immunoprecipitation Kit); blotted with anti-p65 and anti-CC10; rabbit normal serum as negative control.

Results are given in words; binding and its absence hold for the method and conditions named. Binding seen in cells or lysates may run through a third protein.

B1: Clara cell 10-kDa protein (CC10) (protein, UniProt P11684 22-91)
chain: EICPSFQRVIETLLMDTPSSYEAAMELFSPDQDMREAGAQLKKLVDTLPQKPRESIIKLMEKIAQSSLCN
Turning to B1, the binding entry is given as “no binding”.
